# Experimental data: the supplement of paper PMC3682954
# Values joined by “and” are separate entries in the source; they are usually repeats but may differ in a detail not shown here. Equal entries are not always repeated. Structures can show the parent of a compound that is named as a salt. ± gives the standard deviation of the averaged measurements. This is one part of the list. Many values rest on one well or one pass, so single values are uncertain.
# System: RAW 264.7
# Test: cell viability (MTT) relative to vehicle control; higher = more viable cells
# Conditions: stimulus: HMGB1 5 ug/ml, 18 h
# [1] = compound concentration: 1 ug/ml
structure (smiles),measurement,setting,value
CCCN(CCC)C1CCc2ccc(O)cc2C1 (racemic) [(±)-7-Hydroxy-DPAT hydrobromide],cell viability,compound concentration: 3 uM,109%
C=C1CC[C@@]2(O)[C@H]3Cc4ccc(O)c5c4[C@@]2(CCN3CC2CC2)[C@H]1O5 [Nalmefene hydrochloride],cell viability,compound concentration: 3 uM,99.5%
CC(C)Oc1cccnc1N(C)C1CCN(Cc2ccccc2)CC1,cell viability,compound concentration: 3 uM,117%
O=[N+]([O-])O[C@H]1CO[C@H]2[C@@H]1OC[C@H]2O[N+](=O)[O-],cell viability,compound concentration: 3 uM,96.9%
O=[N+]([O-])O[C@H]1CO[C@H]2[C@@H]1OC[C@H]2O[N+](=O)[O-] [Isosorbide dinitrate],cell viability,compound concentration: 3 uM,102%
Cc1ncsc1CCCl [Chlormethiazole hydrochloride],cell viability,compound concentration: 3 uM,108%
CCC1(c2ccc(N)cc2)CCC(=O)NC1=O (racemic) [DL-Aminoglutethimide],cell viability,compound concentration: 3 uM,92.2%
CCC1(c2ccc(N)cc2)CCC(=O)NC1=O (racemic) [(±)-p-Aminoglutethimide],cell viability,compound concentration: 3 uM,97.8%
CNC1CC(c2ccc(Cl)c(Cl)c2)c2ccccc21 (configuration not stated) [Indatraline],cell viability,compound concentration: 3 uM,90%
CCCCCCC(C)(C)c1ccc([C@@H]2C[C@H](O)CC[C@H]2CCCO)c(O)c1,cell viability,compound concentration: 3 uM,93.8%
CCCn1c(=O)c2[nH]c(C3CCCC3)nc2n(CCCOC(=O)c2ccc(S(=O)(=O)F)cc2)c1=O,cell viability,compound concentration: 3 uM,106%
CC(O)(CS(=O)(=O)c1ccc(F)cc1)C(=O)Nc1ccc(C#N)c(C(F)(F)F)c1 (configuration not stated) [Bicalutamide (CDX)],cell viability,compound concentration: 3 uM,106%
CC(O)(CS(=O)(=O)c1ccc(F)cc1)C(=O)Nc1ccc(C#N)c(C(F)(F)F)c1 (configuration not stated) [Bicalutamide],cell viability,compound concentration: 3 uM,114 ± 4.1%
CC(O)(CS(=O)(=O)c1ccc(F)cc1)C(=O)Nc1ccc(C#N)c(C(F)(F)F)c1 (configuration not stated),cell viability,compound concentration: 3 uM,90.3%
"CN1CCc2cc3c(cc2C1C1OC(=O)c2c1ccc1c2OCO1)OCO3 (single isomer, unassigned; (+)) [(+)-Bicuculline]",cell viability,[1],99.8%
CCOC(=O)c1cncn1[C@H](C)c1ccccc1,cell viability,compound concentration: 3 uM,108% and 93%
CCOC(=O)c1cncn1[C@H](C)c1ccccc1 [Etomidate],cell viability,compound concentration: 3 uM,81.6%
CC[C@@H](CO)NC(=O)[C@@H]1C=C2c3cccc4[nH]cc(c34)C[C@H]2N(C)C1 [Methylergonovine maleate],cell viability,compound concentration: 3 uM,104%
CC[C@@H](CO)NC(=O)[C@@H]1C=C2c3cccc4[nH]cc(c34)C[C@H]2N(C)C1 [Methylergometrine maleate],cell viability,compound concentration: 3 uM,99.3%
CC[C@@H](CO)NC(=O)[C@@H]1C=C2c3cccc4[nH]cc(c34)C[C@H]2N(C)C1,cell viability,compound concentration: 3 uM,112%
CCC1(C2=NCCN2)Cc2ccccc2O1 (configuration not stated) [Efaroxan],cell viability,compound concentration: 3 uM,106%
CCC1(C2=NCCN2)Cc2ccccc2O1 (configuration not stated) [Efaroxan hydrochloride],cell viability,compound concentration: 3 uM,102%
CCC1(C2=NCCN2)Cc2ccccc2O1 (configuration not stated),cell viability,compound concentration: 3 uM,103%
CCOC(=O)c1ncn2c1[C@@H]1CCCN1C(=O)c1cc(OC)ccc1-2,cell viability,compound concentration: 3 uM,97.5%
NC(N)=Nc1ccc2[nH]c3c(c2c1)C[C@@]1(O)[C@H]2Cc4ccc(O)c5c4[C@@]1(CCN2CC1CC1)[C@H]3O5 [Guanidinyl-naltrindole di-trifluoroacetate],cell viability,compound concentration: 3 uM,113%
Cc1o[nH]c(=O)c1CC(N)C(=O)O (racemic) [(±)-AMPA hydrobromide],cell viability,compound concentration: 3 uM,109%
CCCCOC(=O)c1ccccc1C(=O)OCCCC,cell viability,compound concentration: 3 uM,115%
"CN1[C@@H]2CC[C@H]1C[C@@H](OC(=O)c1cc(Cl)cc(Cl)c1)C2 [3-Tropanyl-3,5-dichlorobenzoate]",cell viability,compound concentration: 3 uM,122%
O=C(O)C(Cl)Cl,cell viability,compound concentration: 3 uM,95.9%
CC(C)(C)c1cc(C=C(C#N)C#N)cc(C(C)(C)C)c1O [Tyrphostin A9],cell viability,compound concentration: 3 uM,51.3%
O=C(O)c1nn(Cc2ccc(Cl)cc2Cl)c2ccccc12,cell viability,compound concentration: 3 uM,114%
O=C(O)c1nn(Cc2ccc(Cl)cc2Cl)c2ccccc12 [Lonidamine],cell viability,compound concentration: 3 uM,96.3%
"COc1ccc2c(c1OC)C(=O)O[C@@H]2[C@H]1c2cc3c(cc2CCN1C)OCO3 [(1R,9S)-(-)-beta-Hydrastine ; Hydrastine]",cell viability,[1],95%
COc1ccc2c(c1OC)C(=O)O[C@@H]2[C@H]1c2cc3c(cc2CCN1C)OCO3,cell viability,compound concentration: 3 uM,101%
Cc1cc(C(C#N)c2ccc(Cl)cc2)c(Cl)cc1NC(=O)c1cc(I)cc(I)c1O (configuration not stated) [Closantel],cell viability,compound concentration: 3 uM,114 ± 7.9%
C[C@@H]1C[C@@H]([C@H](O)CC2CC(=O)NC(=O)C2)C(=O)[C@@H](C)C1 [Cycloheximide],cell viability,compound concentration: 3 uM,41.1%
C[C@@H]1C[C@@H]([C@H](O)CC2CC(=O)NC(=O)C2)C(=O)[C@@H](C)C1,cell viability,compound concentration: 3 uM,35.3%
CC(C)(O)[C@@H]1[C@H]2OC(=O)[C@@H]1[C@]1(O)C[C@H]3O[C@]34C(=O)O[C@H]2[C@]14C [Picrotin],cell viability,[1],92.7%
NC(Cc1cc(O)c(O)cc1O)C(=O)O (racemic) [6-Hydroxy-DL-DOPA],cell viability,compound concentration: 3 uM,103%
O=c1[nH]oc2c1CCNC2 [THIP hydrochloride],cell viability,compound concentration: 3 uM,118%
O=c1[nH]oc2c1CCNC2 [THIP Hydrochloride],cell viability,compound concentration: 3 uM,80.6%
Cc1nnc2n1-c1ccc(Cl)cc1C(c1ccccc1)=NC2 [Alprazolam],cell viability,compound concentration: 3 uM,89.8%
"C[N+]1(C)CCc2cc3c(cc2[C@H]1[C@@H]1OC(=O)c2c1ccc1c2OCO1)OCO3 [(-)-Bicuculline methbromide, 1(S), 9(R)]",cell viability,compound concentration: 3 uM,103%
COc1ccc2c(c1O)-c1cccc3c1[C@@H](C2)N(C)CC3 [R(-)-Apocodeine hydrochloride],cell viability,compound concentration: 3 uM,98.6%
"C[N+]1(C)[C@@H]2CC(OC(=O)[C@H](CO)c3ccccc3)C[C@H]1[C@@H]1O[C@@H]12 (single isomer, unassigned; (-)) [(-)-Scopolamine methyl nitrate]",cell viability,compound concentration: 3 uM,125%
C[N+]1(C)CCOC(O)(c2ccc(-c3ccc(C4(O)C[N+](C)(C)CCO4)cc3)cc2)C1 (configuration not stated) [Hemicholinium bromide],cell viability,compound concentration: 3 uM,101%
C[N+]1(C)CCOC(O)(c2ccc(-c3ccc(C4(O)C[N+](C)(C)CCO4)cc3)cc2)C1 (configuration not stated) [Hemicholinium-3],cell viability,compound concentration: 3 uM,97.9%
Nc1ccncc1,cell viability,compound concentration: 3 uM,111%
Nc1ccncc1 [4-Aminopyridine],cell viability,compound concentration: 3 uM,109%
CN(C)Cc1c[nH]c2ccccc12 [Gramine],cell viability,[1],94.6%
CC[C@H](C)[C@H]1O[C@]2(C=C[C@@H]1C)C[C@@H]1C[C@@H](C/C=C(\C)[C@@H](O[C@H]3C[C@H](OC)[C@@H](O[C@H]4C[C@H](OC)[C@@H](O)[C@H](C)O4)[C@H](C)O3)[C@@H](C)/C=C/C=C3\CO[C@@H]4[C@H](O)C(C)=C[C@@H](C(=O)O1)[C@]34O)O2.CO[C@H]1C[C@H](O[C@H]2[C@H](C)O[C@@H](O[C@@H]3/C(C)=C/C[C@@H]4C[C@@H](C[C@]5(C=C[C@H](C)[C@@H](C(C)C)O5)O4)OC(=O)[C@@H]4C=C(C)[C@@H](O)[C@H]5OC/C(=C\C=C\[C@@H]3C)[C@]54O)C[C@@H]2OC)O[C@@H](C)[C@@H]1O,cell viability,compound concentration: 3 uM,101%
CC[C@H](C)[C@H]1O[C@]2(C=C[C@@H]1C)C[C@@H]1C[C@@H](C/C=C(\C)[C@@H](O[C@H]3C[C@H](OC)[C@@H](O[C@H]4C[C@H](OC)[C@@H](O)[C@H](C)O4)[C@H](C)O3)[C@@H](C)/C=C/C=C3\CO[C@@H]4[C@H](O)C(C)=C[C@@H](C(=O)O1)[C@]34O)O2.CO[C@H]1C[C@H](O[C@H]2[C@H](C)O[C@@H](O[C@@H]3/C(C)=C/C[C@@H]4C[C@@H](C[C@]5(C=C[C@H](C)[C@@H](C(C)C)O5)O4)OC(=O)[C@@H]4C=C(C)[C@@H](O)[C@H]5OC/C(=C\C=C\[C@@H]3C)[C@]54O)C[C@@H]2OC)O[C@@H](C)[C@@H]1O [Abamectin],cell viability,compound concentration: 3 uM,100%

# Taken from the listing (16 entries):
structure (smiles),measurement,setting,value
CCOC(=O)c1cncn1[C@H](C)c1ccccc1 [Etomidate],cell viability,compound concentration: 3 uM,81.6%
CC[C@@H](CO)NC(=O)[C@@H]1C=C2c3cccc4[nH]cc(c34)C[C@H]2N(C)C1 [Methylergonovine maleate],cell viability,compound concentration: 3 uM,104%
CC[C@@H](CO)NC(=O)[C@@H]1C=C2c3cccc4[nH]cc(c34)C[C@H]2N(C)C1 [Methylergometrine maleate],cell viability,compound concentration: 3 uM,99.3%
CC[C@@H](CO)NC(=O)[C@@H]1C=C2c3cccc4[nH]cc(c34)C[C@H]2N(C)C1,cell viability,compound concentration: 3 uM,112%
CCC1(C2=NCCN2)Cc2ccccc2O1 (configuration not stated) [Efaroxan],cell viability,compound concentration: 3 uM,106%
CCC1(C2=NCCN2)Cc2ccccc2O1 (configuration not stated) [Efaroxan hydrochloride],cell viability,compound concentration: 3 uM,102%
CCC1(C2=NCCN2)Cc2ccccc2O1 (configuration not stated),cell viability,compound concentration: 3 uM,103%
CCOC(=O)c1ncn2c1[C@@H]1CCCN1C(=O)c1cc(OC)ccc1-2,cell viability,compound concentration: 3 uM,97.5%
NC(N)=Nc1ccc2[nH]c3c(c2c1)C[C@@]1(O)[C@H]2Cc4ccc(O)c5c4[C@@]1(CCN2CC1CC1)[C@H]3O5 [Guanidinyl-naltrindole di-trifluoroacetate],cell viability,compound concentration: 3 uM,113%
Cc1o[nH]c(=O)c1CC(N)C(=O)O (racemic) [(±)-AMPA hydrobromide],cell viability,compound concentration: 3 uM,109%
CCCCOC(=O)c1ccccc1C(=O)OCCCC,cell viability,compound concentration: 3 uM,115%
"CN1[C@@H]2CC[C@H]1C[C@@H](OC(=O)c1cc(Cl)cc(Cl)c1)C2 [3-Tropanyl-3,5-dichlorobenzoate]",cell viability,compound concentration: 3 uM,122%
O=C(O)C(Cl)Cl,cell viability,compound concentration: 3 uM,95.9%
CC(C)(C)c1cc(C=C(C#N)C#N)cc(C(C)(C)C)c1O [Tyrphostin A9],cell viability,compound concentration: 3 uM,51.3%
O=C(O)c1nn(Cc2ccc(Cl)cc2Cl)c2ccccc12,cell viability,compound concentration: 3 uM,114%
O=C(O)c1nn(Cc2ccc(Cl)cc2Cl)c2ccccc12 [Lonidamine],cell viability,compound concentration: 3 uM,96.3%

# 2 records drawn at random from those above:
structure (smiles),measurement,setting,value
"COc1ccc2c(c1OC)C(=O)O[C@@H]2[C@H]1c2cc3c(cc2CCN1C)OCO3 [(1R,9S)-(-)-beta-Hydrastine ; Hydrastine]",cell viability,[1],95%
NC(Cc1cc(O)c(O)cc1O)C(=O)O (racemic) [6-Hydroxy-DL-DOPA],cell viability,compound concentration: 3 uM,103%
